According to the supplement of paper PMC6445147:
This is a noisy data set.

B1: human tRNA-Pro; a variant is named by its letters at N, in order (parent)
chain: GGCTCGTTGGTCTAGNGGTATGATTCTCGCTTAGGGTGCGAGAGGTCCCGGGTTCNNATCCCGGACGAGCCC

Columns and labels:
[1] = variants of: B1; experiment: tRNA Pol-III promoter activity, log2 (circRNA frequency / plasmid DNA frequency) (log2 ratio); higher = stronger promoter activity; details: HEK293T; construct: no Pol-II promoter ((-)CMV library)
[2] = variants of: B1; experiment: tRNA 3' processing efficiency (processed reads / all reads, maximum-likelihood estimate) (fraction); higher = more efficient 3' processing; details: HEK293T; construct: no Pol-II promoter ((-)CMV library)
[3] = variants of: B1; experiment: tRNA 5' processing efficiency (processed reads / all reads, maximum-likelihood estimate) (fraction); higher = more efficient 5' processing; details: HEK293T; construct: CMV Pol-II promoter ((+)CMV library, decapped)

Variant | tRNA Pol-III promoter activity (log2) [1] | tRNA 3' processing efficiency [2] | tRNA 5' processing efficiency [3]
GGCTCGTTGGTCTACGGGAATGATTCTCGCTTAGGGTGCGAGAGGTCCCGGGTTCATAACCCGGACGAGCCC [GAT G15C T19A T59A] | 6.53 | 0.5 | 
GGCTCGTTGGTCTAGGCGAATGATTCTCGCTTAGGGTGCGAGAGGTCCCGGGTTCATATCCCGGACGAGCCC [GAT G17C T19A] | 2.76 | 0.25 | 0.25
GGCTCGTTGGTCTAGCCGTATGATTCTCGCTTAGGGTGCGAGAGGTCCCGGGTTCATATCCCGGACGAGCCC [CAT G17C] | 3.34 | 0.17 | 
GGCTCGTTGGTCTAGTCGTATGATTCTCGCTTAGGGTGCGAGAGGTCCCGGGTTCATTTCCCGGACGAGCCC [TAT G17C A58T] | 4.03 | 0.4 | 
GGCTCGTTGGTCTAGGGATCTGATTCTCGCTTAGGGTGCGAGAGGTCCCGGGTTCATATCCCGGACGAGCCC [GAT G18A A20C] | 4.61 | 0.38 | 
GGCTCGTTGGTCTATGGGTATGATTCTCGCTTAGGGTGCGAGAGGTCCCGGGTTAATATCCCGGACGAGCCC [GAT G15T C55A] | 2.04 | 0.75 | 
GGCTCGTTGGTCTACGGGAATGATTCTCGCTTAGGGTGCGAGAGGTCCCGGGTTCATATCCCGGACGAGCCC [GAT G15C T19A] | 3.35 | 0.39 | 
GGCTCGTTGGTCTAGGTGTATGATTCTCGCTTAGGGTGCGAGAGGTCCCGGGTTCATATCCCGGACGAGCCC [GAT G17T] | 0.137 | 0.27 | 
GGCTCGTTGGTCTAGGCGTATGATTCTCGCTTAGGGTGCGAGAGGTCCCGGGTTCATATCCCGGACGAGCCC [GAT G17C] | -0.749 | 0.33 | 
GGCTCGTTGGTCTACGGGTTTGATTCTCGCTTAGGGTGCGAGAGGTCCCGGGTTCATATCCCGGACGAGCCC [GAT G15C A20T] | 4.08 | 0.73 | 
GGCTCGTTGGTCTATGGGTATGATTCTCGCTTAGGGTGCGAGAGGTCCCGGGTTCATATCCCGGACGAGCCC [GAT G15T] | -0.0896 | 0.48 | 0.33
GGCTCGTTGGTCTATCGGTATGATTCTCGCTTAGGGTGCGAGAGGTCCCGGGTTCATATCCCGGACGAGCCC [CAT G15T] | 3.02 | 0.22 | 
GGCTCGTTGGTCTACCGGTATGATTCTCGCTTAGGGTGCGAGAGGTCCCGGGTTCATATCCCGGACGAGCCC [CAT G15C] | 3.38 | 0.31 | 
GGCTCGTTGGTCTACTGGCATGATTCTCGCTTAGGGTGCGAGAGGTCCCGGGTTCATATCCCGGACGAGCCC [TAT G15C T19C] | 6.74 | 0.29 | 
GGCTCGTTGGTCTAGGCGTTTGATTCTCGCTTAGGGTGCGAGAGGTCCCGGGTTCATATCCCGGACGAGCCC [GAT G17C A20T] | 3.94 | 0.29 | 
GGCTCGTTGGTCTAGGCGTGTGATTCTCGCTTAGGGTGCGAGAGGTCCCGGGTTCATATCCCGGACGAGCCC [GAT G17C A20G] | 2.34 | 0.2 | 
GGCTCGTTGGTCTATGGGTATGATTCTCGCTTAGGGTGCGAGAGGTCCCGGGTTCATTTCCCGGACGAGCCC [GAT G15T A58T] | 3.05 | 0.5 | 
GGCTCGTTGGTCTACAGGTATGATTCTCGCTTAGGGTGCGAGAGGTCCCGGGTTCATATCCCGGACGAGCCC [AAT G15C] | 3.67 | 0.2 | 
GGCTCGTTGGTCTATGTGTATGATTCTCGCTTAGGGTGCGAGAGGTCCCGGGTTCATATCCCGGACGAGCCC [GAT G15T G17T] | 2.55 | 0.2 | 

As entered above.
tRNA Pol-III promoter activity (log2) [1] with GGCTCGTTGGTCTAGGTGTATGATTCTCGCTTAGGGTGCGAGAGGTCCCGGGTTCATATCCCGGACGAGCCC [GAT G17T] is entered as 0.137
tRNA 3' processing efficiency [2] with GGCTCGTTGGTCTAGGCGTTTGATTCTCGCTTAGGGTGCGAGAGGTCCCGGGTTCATATCCCGGACGAGCCC [GAT G17C A20T] is entered as 0.29

(next part)

Variant | tRNA Pol-III promoter activity (log2) [1] | tRNA 3' processing efficiency [2] | tRNA 5' processing efficiency [3]
GGCTCGTTGGTCTATGAGTATGATTCTCGCTTAGGGTGCGAGAGGTCCCGGGTTCATATCCCGGACGAGCCC [GAT G15T G17A] | 3.88 | 0.67 | 
GGCTCGTTGGTCTAGGAGTATGATTCTCGCTTAGGGTGCGAGAGGTCCCGGGTTCATCTCCCGGACGAGCCC [GAT G17A A58C] | 5.18 | 0.79 | 
GGCTCGTTGGTCTAGGCGTATGATTCTCGCTTAGGGTGCGAGAGGTCCCGGGATCATATCCCGGACGAGCCC [GAT G17C T53A] | 4.07 | 0.64 | 
GGCTCGTTGGTCTAGGAATATGATTCTCGCTTAGGGTGCGAGAGGTCCCGGGTTCATATCCCGGACGAGCCC [GAT G17A G18A] | 5.87 | 0.62 | 
GGCTCGTTGGTCTAGGTCTGTGATTCTCGCTTAGGGTGCGAGAGGTCCCGGGTTCATATCCCGGACGAGCCC [GAT G17T G18C A20G] | 6.03 | 0.25 | 
GGCTCGTTGGTCTATGGATATGATTCTCGCTTAGGGTGCGAGAGGTCCCGGGTTCATATCCCGGACGAGCCC [GAT G15T G18A] | 4.45 | 0.25 | 
GGCTCGTTGGTCTATGGCTATGATTCTCGCTTAGGGTGCGAGAGGTCCCGGGTTCATATCCCGGACGAGCCC [GAT G15T G18C] | 2.94 | 0.38 | 
GGCTCGTTGGTCTACGGTTGTGATTCTCGCTTAGGGTGCGAGAGGTCCCGGGTTCATATCCCGGACGAGCCC [GAT G15C G18T A20G] | 3.61 | 0.5 | 
GGCTCGTTGGTCTAGGGATATGATTCTCGCTTAGGGTGCGAGAGGTCCCGGGTTCATATCCCGGACGAGCCC [GAT G18A] | 2.38 | 0.41 | 
GGCTCGTTGGTCTACGGTTATGATTCTCGCTTAGGGTGCGAGAGGTCCCGGGTTCATATCCCGGACGAGCCC [GAT G15C G18T] | 3.23 | 0.25 | 
GGCTCGTTGGTCTAGGCATATGATTCTCGCTTAGGGTGCGAGAGGTCCCGGGTTCATATCCCGGACGAGCCC [GAT G17C G18A] | 3.05 | 0.17 | 
GGCTCGTTGGTCTAGGAGGATGATTCTCGCTTAGGGTGCGAGAGGTCCCGGGTTCATATCCCGGACGAGCCC [GAT G17A T19G] | 1.45 | 0.4 | 
GGCTCGTTGGTCTACGGGTATGATTCTCGCTTAGGGTGCGAGAGGTCCCGGGTTCATGTCCCGGACGAGCCC [GAT G15C A58G] | 3.71 | 0.25 | 
GGCTCGTTGGTCTACGGGTATGATTCTCGCTTAGGGTGCGAGAGGTCCCGGGTTCATTTCCCGGACGAGCCC [GAT G15C A58T] | 3.72 | 0.33 | 
GGCTCGTTGGTCTAGATGTATGATTCTCGCTTAGGGTGCGAGAGGTCCCGGGTTCATATCCCGGACGAGCCC [AAT G17T] | 2.23 | 0.25 | 
GGCTCGTTGGTCTAGACGTATGATTCTCGCTTAGGGTGCGAGAGGTCCCGGGTTCATATCCCGGACGAGCCC [AAT G17C] | 4.36 | 0.25 | 
GGCTCGTTGGTCTAGGAGTCTGATTCTCGCTTAGGGTGCGAGAGGTCCCGGGTTCATATCCCGGACGAGCCC [GAT G17A A20C] | 4.36 | 0.62 | 
GGCTCGTTGGTCTAGAGATATGATTCTCGCTTAGGGTGCGAGAGGTCCCGGGTTCATATCCCGGACGAGCCC [AAT G18A] | 1.86 | 0.2 | 
